Test results from doi:10.1101/402099.
Results are given in words; binding and its absence hold for the method and conditions named.

Sequences of proteins named here, by UniProt entry; tags and fusion partners are left off. Residues count along the entry.
UniProt P9WIN9, residues 24-228: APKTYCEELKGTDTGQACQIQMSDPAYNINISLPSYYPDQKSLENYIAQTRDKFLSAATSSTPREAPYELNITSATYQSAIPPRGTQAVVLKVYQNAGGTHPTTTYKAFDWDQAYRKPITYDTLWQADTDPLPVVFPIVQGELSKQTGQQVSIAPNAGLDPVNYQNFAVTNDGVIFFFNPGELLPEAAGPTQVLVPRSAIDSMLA

B1: human lysozyme (enzyme, UniProt P61626 19-148)
chain: KVFERCELARTLKRLGMDGYRGISLANWMCLAKWESGYNTRATNYNAGDRSTDYGIFQINSRYWCNDGKTPGAVNACHLSCSALLQDNIADAVACAKRVVRDPQGIRAWVAWRNRCQNRDVRQYVQGCGV

Target: 6x-histidine (6xHIS) tagged Mpt64 (Mycobacterium tuberculosis) (UniProt P9WIN9)
Experiment: pull-down

| Molecule | binding |
| --- | --- |
| hen egg white lysozyme (from UniProt P00698 19-147) (enzyme) | no binding (tested: 1mg/mL) |
| B1 | no binding (tested: 1mg/mL) |
